Laboratory results taken from the supplement of paper PMC4604168 (melanoma cell lines).
The other results are listed elsewhere or left out. Repeats are few or missing, and single values can be far off.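 The apoptosis fraction was the count of cleaved-PARP antibody-stained nuclei relative to all DNA-stained nuclei, imaged in 1,536-well plates. Screening doses were set so most cells survived, and baseline and induced cleaved-PARP levels vary greatly across cell lines.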

Tests used:
Assay in all cases: cleaved PARP positive nuclei fraction relative to DMSO control; melanoma cells; higher = more apoptosis
Conditions in all cases: library dose: low library concentration; 72 h
[1] = tested on: 501Mel
[2] = tested on: A101D
[3] = tested on: A2058
[4] = tested on: A375
[5] = tested on: C32
[6] = tested on: CBRC008 (line from a melanoma biopsy)
[7] = tested on: CBRC014 (line from a melanoma biopsy)
[8] = tested on: CBRC016 (line from a melanoma biopsy)
[9] = tested on: CBRC017 (line from a melanoma biopsy)
[10] = tested on: CBRC034 (line from a melanoma biopsy)
[11] = tested on: COLO792
[12] = tested on: COLO800
[13] = tested on: COLO829
[14] = tested on: G361
[15] = tested on: IPC-298
[16] = tested on: IST-MEL1
[17] = tested on: LB2518-MEL
[18] = tested on: LOXIMVI
[19] = tested on: MEL-HO
[20] = tested on: CBRC013 (line from a melanoma biopsy)

Compound	cleaved PARP positive nuclei fraction [1] [%]	cleaved PARP positive nuclei fraction [2] [%]	cleaved PARP positive nuclei fraction [3] [%]	cleaved PARP positive nuclei fraction [4] [%]	cleaved PARP positive nuclei fraction [5] [%]	cleaved PARP positive nuclei fraction [6] [%]	cleaved PARP positive nuclei fraction [7] [%]	cleaved PARP positive nuclei fraction [8] [%]	cleaved PARP positive nuclei fraction [9] [%]	cleaved PARP positive nuclei fraction [10] [%]	cleaved PARP positive nuclei fraction [11] [%]	cleaved PARP positive nuclei fraction [12] [%]	cleaved PARP positive nuclei fraction [13] [%]	cleaved PARP positive nuclei fraction [14] [%]	cleaved PARP positive nuclei fraction [15] [%]	cleaved PARP positive nuclei fraction [16] [%]	cleaved PARP positive nuclei fraction [17] [%]	cleaved PARP positive nuclei fraction [18] [%]	cleaved PARP positive nuclei fraction [19] [%]	cleaved PARP positive nuclei fraction [20] [%]
Cn1c(Nc2ccc(C(F)(F)F)cc2)nc2cc(Oc3ccnc(-c4ncc(C(F)(F)F)[nH]4)c3)ccc21 + COCC[n+]1c2c(n(Cc3cnccn3)c1C)C(=O)c1ccccc1C2=O [YM155] (first compound 0.08 µM, partner dose 0.0004 µM)	261	34.5	54.7	226	96	151	115	331	140	174	361	28.9	152	209	105	125	107	146	139	–
C=CCNC1=C2C[C@@H](C)C[C@H](OC)[C@H](O)[C@@H](C)/C=C(\C)[C@H](OC(N)=O)[C@@H](OC)/C=C\C=C(/C)C(=O)NC(=CC1=O)C2=O [Tanespimycin] + C#Cc1cccc(Nc2ncnc3cc(OCCOC)c(OCCOC)cc23)c1 [erlotinib] (first compound 0.002 µM, partner dose 0.8 µM)	146	92.1	64.1	136	165	160	136	99.8	140	55.5	176	117	209	118	90.6	86.4	112	142	121	–
OCc1c[nH]c2ccccc12 [Indole-3-carbinol] + Nc1cccc2c1CN(C1CCC(=O)NC1=O)C2=O [lenalidomide] (first compound 0.8 µM, partner dose 1 µM)	91.6	47	48.6	45.6	152	79.6	87.7	73.6	113	97	94.8	61.1	155	106	126	57.7	48	68.7	72.7	–
OCc1c[nH]c2ccccc12 [Indole-3-carbinol] + Cn1c(Nc2ccc(C(F)(F)F)cc2)nc2cc(Oc3ccnc(-c4ncc(C(F)(F)F)[nH]4)c3)ccc21 [CHIR265] (first compound 0.8 µM, partner dose 0.08 µM)	150	149	102	650	78.9	153	98.5	59	122	1580	299	99.2	65.6	162	141	135	407	117	71.7	–
C#Cc1cccc(Nc2ncnc3cc(OCCOC)c(OCCOC)cc23)c1 [erlotinib] + C[C@]1(c2nc3c(C(N)=O)cccc3[nH]2)CCCN1 [Veliparib] (first compound 0.8 µM, partner dose 1.4 µM)	62.3	105	105	188	38.9	290	94.6	35.4	85.6	89.8	118	81.2	150	123	94.6	145	120	67.6	135	–
C=CCNC1=C2C[C@@H](C)C[C@H](OC)[C@H](O)[C@@H](C)/C=C(\C)[C@H](OC(N)=O)[C@@H](OC)/C=C\C=C(/C)C(=O)NC(=CC1=O)C2=O [Tanespimycin] + COc1ccc(Cl)c(Nc2nc3ccccc3nc2NS(=O)(=O)c2cccc(NC(=O)C(C)(C)N)c2)c1 [XL147] (first compound 0.002 µM, partner dose 0.8 µM)	84.1	50.5	93.4	37	368	193	104	162	152	32.3	214	62.7	105	112	91.2	83.3	56.7	127	86.9	–
CC(=O)c1c(C)c2cnc(Nc3ccc(N4CCNCC4)cn3)nc2n(C2CCCC2)c1=O [palbociclib] + C#Cc1cccc(Nc2ncnc3cc(OCCOC)c(OCCOC)cc23)c1 [erlotinib] (first compound 0.04 µM, partner dose 0.8 µM)	185	215	129	325	69.2	71.6	109	70.4	128	387	114	252	122	75.6	136	167	39.6	127	167	–
C=CCNC1=C2C[C@@H](C)C[C@H](OC)[C@H](O)[C@@H](C)/C=C(\C)[C@H](OC(N)=O)[C@@H](OC)/C=C\C=C(/C)C(=O)NC(=CC1=O)C2=O [Tanespimycin] + COCC[n+]1c2c(n(Cc3cnccn3)c1C)C(=O)c1ccccc1C2=O [YM155] (first compound 0.002 µM, partner dose 0.0004 µM)	86	49.4	99.4	147	134	228	91.9	122	108	122	44.2	97.1	61.9	82.5	123	68.4	96.4	111	90.5	–
Cn1c(Nc2ccc(C(F)(F)F)cc2)nc2cc(Oc3ccnc(-c4ncc(C(F)(F)F)[nH]4)c3)ccc21 + Cn1nnc2c(C(N)=O)ncn2c1=O [temozolomide] (first compound 0.08 µM, partner dose 2 µM)	416	160	239	644	92.4	89.7	104	130	137	74.1	290	52.9	100	242	265	162	327	202	38.1	–
CC(=O)c1c(C)c2cnc(Nc3ccc(N4CCNCC4)cn3)nc2n(C2CCCC2)c1=O [palbociclib] + C[C@]1(c2nc3c(C(N)=O)cccc3[nH]2)CCCN1 [Veliparib] (first compound 0.04 µM, partner dose 1.4 µM)	104	111	151	476	85.7	40.7	115	37.8	187	54.2	60.8	40.7	88.2	105	99.9	70.7	132	205	45.5	–
C[C@]1(c2nc3c(C(N)=O)cccc3[nH]2)CCCN1 [Veliparib] + Cn1cc(/C=C2\C(=O)Nc3cccnc32)c2ccccc21 [GW441756] (first compound 1.4 µM, partner dose 0.4 µM)	67.3	59.5	43.2	23.4	290	–	108	40.9	71.4	65.7	139	131	207	288	40.1	42.7	79.5	77.5	–	106
Cn1cncc1[C@@](N)(c1ccc(Cl)cc1)c1ccc2c(c1)c(-c1cccc(Cl)c1)cc(=O)n2C [tipifarnib] + COc1ccc(COc2ccc(Cc3cnc(N)nc3N)cc2OC)cc1 [GW2580] (first compound 0.01 µM, partner dose 1 µM)	180	321	92.4	155	175	–	76.4	47.4	73.4	32.2	88	24	54.4	117	54.9	128	102	125	–	79.7
OCc1c[nH]c2ccccc12 [Indole-3-carbinol] + COCC[n+]1c2c(n(Cc3cnccn3)c1C)C(=O)c1ccccc1C2=O [YM155] (first compound 0.8 µM, partner dose 0.0004 µM)	224	44.2	213	97	171	152	82.9	101	83.3	110	64.2	64.3	54.1	55	95.6	92.7	120	99.2	39.8	–
CC(=O)c1c(C)c2cnc(Nc3ccc(N4CCNCC4)cn3)nc2n(C2CCCC2)c1=O [palbociclib] + Nc1cccc2c1CN(C1CCC(=O)NC1=O)C2=O [lenalidomide] (first compound 0.04 µM, partner dose 1 µM)	190	44.5	103	394	91.5	29.9	108	104	122	83.9	178	153	103	92	187	53.9	130	177	93.4	–
Cn1c(Nc2ccc(C(F)(F)F)cc2)nc2cc(Oc3ccnc(-c4ncc(C(F)(F)F)[nH]4)c3)ccc21 + COc1ccc(-c2ccc3c(N4CCOCC4)nc(N4C[C@@H](C)O[C@@H](C)C4)nc3n2)cc1CO [KU0063794] (first compound 0.08 µM, partner dose 0.02 µM)	120	151	197	304	112	–	114	96.9	82.2	94	286	39.1	137	223	135	42.2	309	108	–	187
C#Cc1cccc(Nc2ncnc3cc(OCCOC)c(OCCOC)cc23)c1 [erlotinib] + Cc1cc([N+](=O)[O-])ccc1NS(=O)(=O)c1cc(Cl)ccc1Cl [FH535] (first compound 0.8 µM, partner dose 1 µM)	49.6	151	146	424	60.6	–	187	1050	368	148	147	104	137	106	224	240	80.7	60.9	–	121
OCc1c[nH]c2ccccc12 [Indole-3-carbinol] + C#Cc1cccc(Nc2ncnc3cc(OCCOC)c(OCCOC)cc23)c1 [erlotinib] (first compound 0.8 µM, partner dose 0.8 µM)	68.6	250	119	107	86	74.8	86.4	118	87.4	93.4	99	123	91.4	82.2	49.1	61.1	117	141	120	–

Part of the list above, as comma-separated lines:
Compound,cleaved PARP positive nuclei fraction [1] [%],cleaved PARP positive nuclei fraction [2] [%],cleaved PARP positive nuclei fraction [3] [%],cleaved PARP positive nuclei fraction [4] [%],cleaved PARP positive nuclei fraction [5] [%],cleaved PARP positive nuclei fraction [6] [%],cleaved PARP positive nuclei fraction [7] [%],cleaved PARP positive nuclei fraction [8] [%],cleaved PARP positive nuclei fraction [9] [%],cleaved PARP positive nuclei fraction [10] [%],cleaved PARP positive nuclei fraction [11] [%],cleaved PARP positive nuclei fraction [12] [%],cleaved PARP positive nuclei fraction [13] [%],cleaved PARP positive nuclei fraction [14] [%],cleaved PARP positive nuclei fraction [15] [%],cleaved PARP positive nuclei fraction [16] [%],cleaved PARP positive nuclei fraction [17] [%],cleaved PARP positive nuclei fraction [18] [%],cleaved PARP positive nuclei fraction [19] [%],cleaved PARP positive nuclei fraction [20] [%]
"OCc1c[nH]c2ccccc12 [Indole-3-carbinol] + COCC[n+]1c2c(n(Cc3cnccn3)c1C)C(=O)c1ccccc1C2=O [YM155] (first compound 0.8 µM, partner dose 0.0004 µM)",224,44.2,213,97,171,152,82.9,101,83.3,110,64.2,64.3,54.1,55,95.6,92.7,120,99.2,39.8,–
"CC(=O)c1c(C)c2cnc(Nc3ccc(N4CCNCC4)cn3)nc2n(C2CCCC2)c1=O [palbociclib] + Nc1cccc2c1CN(C1CCC(=O)NC1=O)C2=O [lenalidomide] (first compound 0.04 µM, partner dose 1 µM)",190,44.5,103,394,91.5,29.9,108,104,122,83.9,178,153,103,92,187,53.9,130,177,93.4,–
